Measurements as given in patent US8530507B2, “Use of levo-ornidazole in the preparation of anti-anaerobic bacteria infection drugs” (priority 2005, dated 2013).
At least one compound was matched to its structure with a doubt left.

Test system: Porphyromonas gingivalis
Assay: In vitro MIC determination, clinical anaerobic strains
Assay type: cell-based
Conditions: 2 clinical strains, GAM broth, 72 hours anaerobic incubation at 35° C.

For `Cc1ncc([N+](=O)[O-])n1C[C@H](O)CCl` [L-ornidazole, 1-(3-chloro-2-S-(−)-hydroxypropyl)-2-methyl-5-nitroimidazole], the “MIC Range (values of the 2 strains)” value was 2.0, 2.0 mg/L.
